Reference: PubChem BioAssay AID1259306 (Sanger Institute, 2017)
Here is a random part of 794 reagents. 11 of all reagents (1.4%) count as active. 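Calls reflect knock-down alone; synergy scores play no part, so knock-downs synergising with a drug can be called no change.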 A number with no mark means an inactive call. Viability is capped at 1. Further read-outs or replicates are left out here. Not stated in the record: the amount of reagent, the time to read-out.

Assay: 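Kinases needed for viability and knock-downs that synergise with BYL719, cetuximab or trametinib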 (primary screen)
System: human SNU-C5 colorectal cancer cells
Knock-down reagent: siRNA pool against human genes
Treatment: DMSO vehicle alone, or one anchor drug: BYL719 at 1 µM, cetuximab at 5 µg/ml or trametinib at 10 nM, given 24 h into the assay
Measured: 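Replicate-averaged viability against non-targeting pool control, given as fraction and robust z-score; separate synergy scores for BYL719, cetuximab and trametinib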
Reading the numbers: robust z-score, knock-down alone and viability, knock-down alone: higher = more viable cells
Hit rule: 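Essential if knock-down without drug gives a robust z-score under -3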
Meaning of the calls: active = essential (knock-down alone); inactive = no change alone

CSF1R (colony stimulating factor 1 receptor): robust z-score, knock-down alone = -1.64; viability, knock-down alone = 0.638
CSNK2A2 (casein kinase 2 alpha 2): robust z-score, knock-down alone = -1.1; viability, knock-down alone = 0.712
CDK9 (cyclin dependent kinase 9): robust z-score, knock-down alone = 0.989; viability, knock-down alone = 1
NEK3 (NIMA related kinase 3): robust z-score, knock-down alone = -1.03; viability, knock-down alone = 0.721
PIP4K2B (phosphatidylinositol-5-phosphate 4-kinase type 2 beta): robust z-score, knock-down alone = 0.174; viability, knock-down alone = 0.888
CIB2 (calcium and integrin binding family member 2): robust z-score, knock-down alone = -2; viability, knock-down alone = 0.589
MAPKAPK3 (MAPK activated protein kinase 3): robust z-score, knock-down alone = -1.5; viability, knock-down alone = 0.657
HK1 (hexokinase 1): robust z-score, knock-down alone = 0.824; viability, knock-down alone = 0.977
RIPK3 (receptor interacting serine/threonine kinase 3): robust z-score, knock-down alone = 0.355; viability, knock-down alone = 0.913
PAK4 (p21 (RAC1) activated kinase 4): robust z-score, knock-down alone = 0.989; viability, knock-down alone = 1
PDGFRB (platelet derived growth factor receptor beta): robust z-score, knock-down alone = -1.06; viability, knock-down alone = 0.717
KSR1 (kinase suppressor of ras 1): robust z-score, knock-down alone = -0.123; viability, knock-down alone = 0.847
CILK1 (ciliogenesis associated kinase 1): robust z-score, knock-down alone = 0.988; viability, knock-down alone = 1
TEK (TEK receptor tyrosine kinase): robust z-score, knock-down alone = 0.804; viability, knock-down alone = 0.974
HIPK1 (homeodomain interacting protein kinase 1): robust z-score, knock-down alone = 0.48; viability, knock-down alone = 0.93
ARAF (A-Raf proto-oncogene, serine/threonine kinase): robust z-score, knock-down alone = 0.798; viability, knock-down alone = 0.974
DGKQ (diacylglycerol kinase theta): robust z-score, knock-down alone = -1.38; viability, knock-down alone = 0.674
CALM2 (calmodulin 2): robust z-score, knock-down alone = 0.17; viability, knock-down alone = 0.887
STK25 (serine/threonine kinase 25): robust z-score, knock-down alone = 0.504; viability, knock-down alone = 0.933
BMP2K (BMP2 inducible kinase): robust z-score, knock-down alone = -0.189; viability, knock-down alone = 0.838
RFK (riboflavin kinase): robust z-score, knock-down alone = 0.989; viability, knock-down alone = 1
PFKFB1 (6-phosphofructo-2-kinase/fructose-2,6-biphosphatase 1): robust z-score, knock-down alone = -2.31; viability, knock-down alone = 0.545
PRKAB2 (protein kinase AMP-activated non-catalytic subunit beta 2): robust z-score, knock-down alone = 0.325; viability, knock-down alone = 0.909
CLK3 (CDC like kinase 3): robust z-score, knock-down alone = -0.409; viability, knock-down alone = 0.807
PRKAR1A: robust z-score, knock-down alone = 0.989; viability, knock-down alone = 1
RPS6KA1 (ribosomal protein S6 kinase A1): robust z-score, knock-down alone = 0.381; viability, knock-down alone = 0.916
STK32B (serine/threonine kinase 32B): robust z-score, knock-down alone = 0.989; viability, knock-down alone = 1
ZAP70 (zeta chain of T cell receptor associated protein kinase 70): robust z-score, knock-down alone = -0.457; viability, knock-down alone = 0.801

Quoted from above (3 entries):
RIPK3 (receptor interacting serine/threonine kinase 3): robust z-score, knock-down alone = 0.355; viability, knock-down alone = 0.913
PAK4 (p21 (RAC1) activated kinase 4): robust z-score, knock-down alone = 0.989; viability, knock-down alone = 1
PDGFRB (platelet derived growth factor receptor beta): robust z-score, knock-down alone = -1.06; viability, knock-down alone = 0.717
